Taken from: PubChem BioAssay AID652243 (Drosophila RNAi Screening Center, 2013)
The screen tested about 24,000 reagents; this is an unselected part of those that have a named target and a result. Of all reagents, 246 (1%) were called active. 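Plates not normalised; calls are printed but the firefly/Renilla ratio behind them is not deposited; fold cut for lowering reported inconsistently.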 Raw values vary from plate to plate and are shown uncorrected. Reagents against one gene are numbered here. Reagent sequences are not shown. The record does not give: the amount of reagent.

Aim: 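Knock-downs that decrease or increase androgen receptor reporter signal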 (primary screen)
System: Drosophila S2R+ cells
Reagents: long dsRNA against Drosophila genes
Duration: 72 h (48 h, then 24 h hormone)
Challenge: synthetic androgen R1881 at 10 nM for 24 h
Measurement: 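Firefly light from an androgen-responsive reporter and Renilla control light per well, raw and unnormalised, for each of two replicates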
Reading the numbers: firefly reporter light: higher = more light from androgen-responsive reporter; Renilla control light: higher = more constitutive control signal (cell number, transfection)
Hit rule: 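Across duplicate plates, a knock-down whose log firefly/Renilla ratio shifted a set fold down or up from the GFP/LacZ control mean was a hit; the downward cut appears as both 1.5 and 3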
Calls: active = hit: reporter lowered or raised; inactive = no hit

target gene	dsRNA no.	firefly reporter light, replicate 1	firefly reporter light, replicate 2	Renilla control light, replicate 1	Renilla control light, replicate 2	Outcome
PH4alphaSG1	1	1.47e5	1.84e5	2.59e6	2.77e6	inactive
CG5500	1	2.23e5	2.03e5	2.33e6	3.26e6	inactive
CG5500	2	4.79e5	2.84e5	6.81e5	6.81e5	inactive
CG9030	1	4.83e5	5.44e5	2.66e6	3.21e6	inactive
CG14322	1	36334	18212	5.75e5	5.32e5	inactive
CG10959	1	1.22e5	74258	4.45e5	3.02e5	inactive
CG10959	2	4.33e5	4.29e5	1.52e6	1.70e6	inactive
CG13947	1	1.08e5	70471	9.47e5	7.62e5	inactive
CG13947	2	7.12e5	9.08e5	1.27e6	1.07e6	inactive
chico	1	6.30e5	5.47e5	1.38e6	1.22e6	inactive
Ser7	1	97375	54457	6.26e5	6.65e5	inactive
CG14499	1	70116	1.08e5	1.40e6	1.40e6	inactive
Herc4	1	61363	56342	6.13e5	6.35e5	inactive
robo2	1	1.37e5	1.07e5	1.02e6	1.10e6	inactive
robo2	2	1.66e5	1.25e5	9.31e5	7.93e5	inactive
robo2	3	86751	1.24e5	6.25e5	7.44e5	inactive
robo2	4	2.85e5	3.17e5	8.83e5	1.02e6	inactive
Pka-C1	1	6.25e5	7.62e5	1.69e6	1.98e6	inactive
Pka-C1	2	5.10e5	5.24e5	1.53e5	1.59e5	inactive
Pka-C1	3	3.12e5	5.08e5	1.03e6	1.64e6	inactive
CG2063	1	2.53e5	1.80e5	1.99e6	1.09e6	inactive
AdoR	1	81612	89004	1.38e6	1.36e6	inactive
AdoR	2	3.83e5	4.10e5	9.42e5	1.11e6	inactive
gdrd	1	1.20e5	1.49e5	9.85e5	1.50e6	inactive
agt	1	1.66e5	1.31e5	3.20e6	2.60e6	inactive
tapas	1	1.11e6	1.17e6	1.30e6	8.64e5	inactive
Pak	1	20464	20612	1.69e5	1.20e5	inactive
Pak	2	5.13e5	5.70e5	1.31e6	1.45e6	inactive
Pak	3					inactive
Pak	4					inactive
Act5C	1	1.68e5	2.31e5	2.26e6	2.95e6	inactive
Act5C	2	5.17e5	7.27e5	7.12e5	6.72e5	inactive
CG13097	1	7.69e5	8.08e5	1.60e6	1.74e6	inactive
Acat1	1	72071	47003	4.74e5	3.23e5	inactive
Acat1	2	4.01e5	9.18e5	8.20e5	1.46e6	inactive
CG6066	1	2.09e5	1.77e5	2.93e6	2.81e6	inactive
CG6066	2	7.11e5	5.39e5	2.26e6	2.04e6	inactive
CG6066	3	1.04e6	4.86e5	3.04e6	1.36e6	inactive
ksr	1	45164	69529	8.52e5	1.01e6	inactive
ksr	2	6.60e5	5.90e5	1.36e6	1.36e6	inactive
ksr	3					inactive
Ubc87F	1	1.62e5	1.62e5	2.80e6	2.71e6	inactive
Ubc87F	2	4.18e5	4.66e5	1.37e6	1.42e6	inactive
Stam	1	1.02e6	9.97e5	2.81e6	2.63e6	inactive
Stam	2	2.23e5	2.20e5	6.10e5	4.75e5	inactive
Stam	3					inactive
Stam	4					inactive
Gr22c	1	6.96e5	5.97e5	2.40e6	1.87e6	inactive
Gr22c	2	9.84e5	6.44e5	1.57e6	1.19e6	inactive
fs(1)N	1	3.82e5	3.91e5	4.70e6	4.10e6	inactive
TTLL1A	1	56718	85378	5.18e5	4.30e5	inactive
Camp	1	1.04e5	1.11e5	1.88e6	1.88e6	inactive
CG15483	1	2.46e5	2.95e5	1.73e6	1.73e6	inactive
CG2124	1	4.08e5	3.50e5	2.25e6	2.30e6	inactive
vap	1	61883	1.23e5	5.65e5	7.81e5	inactive
2mit	1	74119	75791	1.02e6	1.50e6	inactive
2mit	2	64716	63234	1.30e6	1.80e6	inactive
2mit	3					inactive

Look-ups from above.
Value for Herc4 under “Renilla control light, replicate 2”: 6.35e5
Acat1 #2, Renilla control light, replicate 2 → 1.46e6
Under “Renilla control light, replicate 1”, fs(1)N has 4.70e6
Ubc87F #2, firefly reporter light, replicate 1: 4.18e5
Result of Pka-C1 #1 in “Outcome”: inactive
Entry of Ser7 under “Outcome”: inactive
